Measurements taken from the supplement of paper PMC10849652.
The other results are listed elsewhere or left out.

Protein sequences, listed by entry. Tags and fused reporters are not part of them. Lines headed by an entry give the natural chain unless they say otherwise; changes in a name come on top.
UniProt P29590: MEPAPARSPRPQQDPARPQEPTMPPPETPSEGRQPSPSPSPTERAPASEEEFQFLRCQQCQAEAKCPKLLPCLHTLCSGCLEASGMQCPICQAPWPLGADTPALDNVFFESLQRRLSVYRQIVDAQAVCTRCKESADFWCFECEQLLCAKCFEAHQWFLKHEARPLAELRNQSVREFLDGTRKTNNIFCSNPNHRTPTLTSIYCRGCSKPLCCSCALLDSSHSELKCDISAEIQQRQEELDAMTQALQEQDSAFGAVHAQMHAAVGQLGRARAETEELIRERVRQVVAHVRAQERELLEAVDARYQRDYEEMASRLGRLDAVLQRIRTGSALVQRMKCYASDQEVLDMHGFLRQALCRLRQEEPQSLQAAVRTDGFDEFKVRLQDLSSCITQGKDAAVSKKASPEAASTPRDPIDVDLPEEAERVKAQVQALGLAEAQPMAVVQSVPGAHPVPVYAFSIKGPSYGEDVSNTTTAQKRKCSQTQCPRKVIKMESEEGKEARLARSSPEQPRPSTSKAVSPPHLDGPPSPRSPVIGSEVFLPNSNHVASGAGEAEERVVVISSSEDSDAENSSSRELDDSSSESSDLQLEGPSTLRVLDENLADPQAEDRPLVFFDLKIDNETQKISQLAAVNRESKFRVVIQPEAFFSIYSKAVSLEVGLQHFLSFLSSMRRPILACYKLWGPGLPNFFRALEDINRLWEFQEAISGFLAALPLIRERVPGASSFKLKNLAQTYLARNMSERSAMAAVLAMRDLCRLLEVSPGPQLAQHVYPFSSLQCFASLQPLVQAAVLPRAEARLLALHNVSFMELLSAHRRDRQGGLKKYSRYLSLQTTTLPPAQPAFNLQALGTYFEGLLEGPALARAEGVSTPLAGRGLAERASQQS
UniProt P0CG38, whole entry, looked up: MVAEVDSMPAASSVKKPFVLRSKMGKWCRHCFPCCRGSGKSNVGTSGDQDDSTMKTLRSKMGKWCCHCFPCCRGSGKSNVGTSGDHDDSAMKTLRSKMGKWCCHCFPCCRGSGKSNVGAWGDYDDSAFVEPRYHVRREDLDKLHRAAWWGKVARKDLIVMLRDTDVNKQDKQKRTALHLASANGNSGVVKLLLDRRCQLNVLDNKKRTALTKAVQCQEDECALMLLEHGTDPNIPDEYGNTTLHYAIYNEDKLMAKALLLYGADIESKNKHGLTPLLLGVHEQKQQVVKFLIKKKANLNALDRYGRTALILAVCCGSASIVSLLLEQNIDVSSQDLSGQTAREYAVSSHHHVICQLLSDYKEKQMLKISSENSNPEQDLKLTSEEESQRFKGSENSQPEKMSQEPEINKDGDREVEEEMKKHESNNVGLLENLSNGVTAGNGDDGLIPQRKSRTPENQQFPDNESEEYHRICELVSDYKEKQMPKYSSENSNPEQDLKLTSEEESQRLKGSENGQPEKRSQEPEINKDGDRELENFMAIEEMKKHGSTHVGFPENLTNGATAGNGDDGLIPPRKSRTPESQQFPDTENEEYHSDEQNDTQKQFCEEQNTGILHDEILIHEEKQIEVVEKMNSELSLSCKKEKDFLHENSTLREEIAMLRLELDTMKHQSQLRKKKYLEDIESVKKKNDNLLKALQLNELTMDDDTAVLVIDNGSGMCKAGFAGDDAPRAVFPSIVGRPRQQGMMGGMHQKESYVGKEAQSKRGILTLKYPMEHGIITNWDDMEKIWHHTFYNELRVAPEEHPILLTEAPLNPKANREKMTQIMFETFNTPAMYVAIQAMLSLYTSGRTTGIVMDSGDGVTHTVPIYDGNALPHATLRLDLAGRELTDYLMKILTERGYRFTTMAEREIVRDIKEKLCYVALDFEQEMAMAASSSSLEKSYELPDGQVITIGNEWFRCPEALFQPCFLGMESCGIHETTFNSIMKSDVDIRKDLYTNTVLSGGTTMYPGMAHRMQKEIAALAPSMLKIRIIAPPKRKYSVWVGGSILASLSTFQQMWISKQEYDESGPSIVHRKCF
UniProt P0DPB6, whole entry, looked up: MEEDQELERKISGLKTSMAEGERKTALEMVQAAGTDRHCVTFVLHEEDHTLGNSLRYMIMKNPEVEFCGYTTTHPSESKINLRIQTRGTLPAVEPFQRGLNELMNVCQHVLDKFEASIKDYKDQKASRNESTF
UniProt Q9Y244: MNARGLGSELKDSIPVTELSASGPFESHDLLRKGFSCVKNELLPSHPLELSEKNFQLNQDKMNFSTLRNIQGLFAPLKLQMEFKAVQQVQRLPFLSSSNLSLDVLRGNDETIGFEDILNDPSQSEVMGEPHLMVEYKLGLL
UniProt Q8WUA2: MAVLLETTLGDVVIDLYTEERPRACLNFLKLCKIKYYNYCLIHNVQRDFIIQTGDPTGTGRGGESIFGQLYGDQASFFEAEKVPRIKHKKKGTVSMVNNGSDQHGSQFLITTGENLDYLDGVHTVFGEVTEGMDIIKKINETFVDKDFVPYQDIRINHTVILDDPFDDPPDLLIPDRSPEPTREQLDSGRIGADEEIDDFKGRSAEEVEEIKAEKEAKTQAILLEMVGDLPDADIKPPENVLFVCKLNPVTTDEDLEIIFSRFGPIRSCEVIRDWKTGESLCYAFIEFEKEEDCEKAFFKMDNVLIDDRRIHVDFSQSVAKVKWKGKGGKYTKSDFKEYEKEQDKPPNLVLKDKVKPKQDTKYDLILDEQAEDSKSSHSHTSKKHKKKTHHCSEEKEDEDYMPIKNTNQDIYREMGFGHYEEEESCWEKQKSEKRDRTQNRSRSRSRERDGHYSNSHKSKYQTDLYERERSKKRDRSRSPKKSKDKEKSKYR
UniProt P28340: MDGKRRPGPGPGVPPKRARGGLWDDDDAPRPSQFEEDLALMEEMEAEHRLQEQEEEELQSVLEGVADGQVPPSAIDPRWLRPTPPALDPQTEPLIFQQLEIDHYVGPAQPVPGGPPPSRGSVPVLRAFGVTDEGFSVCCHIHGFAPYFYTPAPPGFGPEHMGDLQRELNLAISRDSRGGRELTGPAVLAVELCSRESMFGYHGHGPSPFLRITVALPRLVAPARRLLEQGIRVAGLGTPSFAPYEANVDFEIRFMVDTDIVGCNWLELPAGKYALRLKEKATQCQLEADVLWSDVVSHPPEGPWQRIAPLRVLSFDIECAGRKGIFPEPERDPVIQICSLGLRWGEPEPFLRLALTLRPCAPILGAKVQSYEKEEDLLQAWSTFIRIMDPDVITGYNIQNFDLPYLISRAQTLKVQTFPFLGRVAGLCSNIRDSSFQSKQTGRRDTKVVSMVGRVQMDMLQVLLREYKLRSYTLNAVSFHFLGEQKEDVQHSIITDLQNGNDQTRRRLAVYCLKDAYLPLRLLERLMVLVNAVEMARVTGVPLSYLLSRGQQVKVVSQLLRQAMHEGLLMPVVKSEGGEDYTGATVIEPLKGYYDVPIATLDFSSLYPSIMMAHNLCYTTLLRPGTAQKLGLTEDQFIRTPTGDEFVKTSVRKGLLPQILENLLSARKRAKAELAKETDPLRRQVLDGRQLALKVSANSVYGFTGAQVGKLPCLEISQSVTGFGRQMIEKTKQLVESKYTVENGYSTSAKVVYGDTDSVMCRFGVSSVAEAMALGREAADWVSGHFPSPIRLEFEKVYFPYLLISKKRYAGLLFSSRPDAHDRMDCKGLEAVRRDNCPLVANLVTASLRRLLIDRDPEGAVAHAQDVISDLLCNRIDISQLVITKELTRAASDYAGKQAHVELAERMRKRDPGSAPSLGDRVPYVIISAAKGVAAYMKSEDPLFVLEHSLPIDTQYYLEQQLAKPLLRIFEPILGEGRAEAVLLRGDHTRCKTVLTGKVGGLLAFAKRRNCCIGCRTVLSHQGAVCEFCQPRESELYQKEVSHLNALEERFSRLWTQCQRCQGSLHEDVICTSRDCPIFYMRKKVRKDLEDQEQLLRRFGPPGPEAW
UniProt Q96AD5: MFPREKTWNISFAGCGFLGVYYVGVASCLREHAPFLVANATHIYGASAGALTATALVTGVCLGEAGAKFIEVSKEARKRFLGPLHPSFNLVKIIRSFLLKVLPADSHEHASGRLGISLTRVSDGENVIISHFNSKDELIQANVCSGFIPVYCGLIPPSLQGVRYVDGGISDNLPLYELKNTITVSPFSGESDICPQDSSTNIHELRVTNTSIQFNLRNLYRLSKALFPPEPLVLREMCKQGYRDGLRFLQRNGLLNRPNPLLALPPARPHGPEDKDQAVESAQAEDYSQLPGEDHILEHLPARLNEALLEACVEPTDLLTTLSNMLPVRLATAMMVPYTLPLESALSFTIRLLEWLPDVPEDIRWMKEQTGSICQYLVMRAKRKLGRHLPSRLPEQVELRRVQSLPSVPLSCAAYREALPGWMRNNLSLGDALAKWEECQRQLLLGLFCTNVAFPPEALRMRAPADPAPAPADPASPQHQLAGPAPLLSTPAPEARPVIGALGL
UniProt Q10713: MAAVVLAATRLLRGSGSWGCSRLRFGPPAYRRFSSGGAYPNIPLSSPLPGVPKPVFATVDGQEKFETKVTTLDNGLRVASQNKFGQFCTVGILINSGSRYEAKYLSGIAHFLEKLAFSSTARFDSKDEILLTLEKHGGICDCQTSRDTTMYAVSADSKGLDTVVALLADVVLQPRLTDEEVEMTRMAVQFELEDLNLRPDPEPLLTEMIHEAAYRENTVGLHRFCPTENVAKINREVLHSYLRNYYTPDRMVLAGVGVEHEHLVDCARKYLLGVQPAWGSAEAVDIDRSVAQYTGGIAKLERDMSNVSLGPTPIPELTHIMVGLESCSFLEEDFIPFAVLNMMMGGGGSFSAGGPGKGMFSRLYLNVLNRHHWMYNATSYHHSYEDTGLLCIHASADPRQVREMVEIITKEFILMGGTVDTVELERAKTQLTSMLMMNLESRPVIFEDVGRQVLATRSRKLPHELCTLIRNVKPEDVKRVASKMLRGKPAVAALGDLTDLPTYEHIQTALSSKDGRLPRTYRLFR
UniProt Q9NP80: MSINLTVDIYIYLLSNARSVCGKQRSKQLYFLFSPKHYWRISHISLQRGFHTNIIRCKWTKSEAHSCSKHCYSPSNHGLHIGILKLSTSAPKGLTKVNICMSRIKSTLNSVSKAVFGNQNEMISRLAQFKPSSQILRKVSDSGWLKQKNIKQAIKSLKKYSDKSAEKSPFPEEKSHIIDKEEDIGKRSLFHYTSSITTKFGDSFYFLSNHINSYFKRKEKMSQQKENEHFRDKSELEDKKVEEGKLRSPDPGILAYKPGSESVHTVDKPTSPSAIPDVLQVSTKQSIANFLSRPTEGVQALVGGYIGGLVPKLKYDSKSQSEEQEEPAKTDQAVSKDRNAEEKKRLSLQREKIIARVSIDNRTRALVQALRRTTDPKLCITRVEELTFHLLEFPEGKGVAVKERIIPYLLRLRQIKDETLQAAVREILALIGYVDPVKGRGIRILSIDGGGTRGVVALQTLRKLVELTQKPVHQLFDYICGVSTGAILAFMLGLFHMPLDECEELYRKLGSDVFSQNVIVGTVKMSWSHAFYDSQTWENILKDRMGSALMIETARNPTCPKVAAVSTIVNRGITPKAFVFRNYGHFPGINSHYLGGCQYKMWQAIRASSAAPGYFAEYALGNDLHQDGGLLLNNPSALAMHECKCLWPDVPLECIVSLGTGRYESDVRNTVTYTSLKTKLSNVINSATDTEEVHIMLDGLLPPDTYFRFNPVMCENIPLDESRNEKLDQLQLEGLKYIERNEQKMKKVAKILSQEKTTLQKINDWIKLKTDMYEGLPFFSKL
UniProt Q9H307: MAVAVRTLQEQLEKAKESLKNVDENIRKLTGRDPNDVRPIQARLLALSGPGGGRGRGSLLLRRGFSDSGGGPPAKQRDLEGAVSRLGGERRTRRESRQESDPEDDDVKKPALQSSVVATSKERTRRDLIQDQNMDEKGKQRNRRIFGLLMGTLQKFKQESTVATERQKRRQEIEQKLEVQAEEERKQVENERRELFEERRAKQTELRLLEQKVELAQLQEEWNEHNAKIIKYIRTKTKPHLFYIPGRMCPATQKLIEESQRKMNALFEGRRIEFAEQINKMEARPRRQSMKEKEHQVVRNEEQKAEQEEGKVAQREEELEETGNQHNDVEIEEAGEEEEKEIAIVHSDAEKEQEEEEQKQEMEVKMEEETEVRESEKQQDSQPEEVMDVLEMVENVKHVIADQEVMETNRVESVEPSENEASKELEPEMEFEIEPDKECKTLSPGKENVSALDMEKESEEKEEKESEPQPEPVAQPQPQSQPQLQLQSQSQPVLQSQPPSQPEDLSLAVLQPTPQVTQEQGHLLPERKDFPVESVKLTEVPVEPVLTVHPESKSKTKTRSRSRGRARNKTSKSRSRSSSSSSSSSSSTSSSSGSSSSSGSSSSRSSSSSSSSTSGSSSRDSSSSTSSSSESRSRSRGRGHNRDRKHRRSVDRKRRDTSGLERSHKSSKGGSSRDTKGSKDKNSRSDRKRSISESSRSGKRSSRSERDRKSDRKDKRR

How the values were obtained:
Experiment in all cases: log2 fold change, soluble protein after heating vs DMSO (PISA); higher = thermal stabilisation; K562 cells, 10 uM, 30 min; active = over 0.2 and 3.5 SD of the protein, either way, in both replicates (recomputed)
[1] = compound: CC[C@@H]1C(=O)N(C)c2cnc(Nc3ccc(C(=O)NC4CCN(C)CC4)cc3OC)nc2N1C1CCCC1
Outline: (§1)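 K562 cells at 2×10^6 cells/mL were treated with 10 μM compound for 30 min. Aliquots were heated for 3 min across 48°C-58°C, pooled, and extracted in PBS with 0.5% NP-40 at 4°C; soluble protein was the supernatant after 21,000xg for 90 min. Soluble protein was quantified by TMTpro 16plex LC-MS/MS with channel sums equalised, and reported as log2 fold change in thermal stability against DMSO controls, with values from duplicates.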

volasertib = compound: CC[C@@H]1C(=O)N(C)c2cnc(Nc3ccc(C(=O)N[C@H]4CC[C@H](N5CCN(CC6CC6)CC5)CC4)cc3OC)nc2N1C(C)C [volasertib]
Outline: as §1

[2] = compound: CC[C@H](C)N1C=C(C2=C(C=C(C=C21)C3=CN=C(C=C3)N4CCNCC4)C(=O)NCC5=C(C=C(NC5=O)C)C)C
Outline: as §1

epoxomicin = compound: CC[C@H](C)[C@@H](C(=O)N[C@@H]([C@@H](C)O)C(=O)N[C@@H](CC(C)C)C(=O)[C@]1(CO1)C)NC(=O)[C@H]([C@@H](C)CC)N(C)C(=O)C [epoxomicin]
Outline: as §1

[3] = compound: CCn1cc(-c2ccnc3[nH]c(-c4cccc(CN(C)C)c4)cc23)c(-c2ccc(NC(=O)N(C)C)cc2)n1
Outline: as §1

[4] = compound: CN(C)CC(=O)Nc1ccc2[nH]c(=O)c3ccccc3c2c1
Outline: as §1

[5] = compound: CN1C2=C(C3=C1C(=O)N(N=C3)CC4=CC(=CC=C4)N)SC(=C2)S(=O)C
Outline: as §1

[6] = compound: CN1CCC(CNc2ccc3ncc(-c4cccc(OC(F)(F)F)c4)n3n2)CC1
Outline: as §1

saracatinib = compound: CN1CCN(CCOc2cc(OC3CCOCC3)c3c(Nc4c(Cl)ccc5c4OCO5)ncnc3c2)CC1 [saracatinib]
Outline: as §1

sotrastaurin = compound: CN1CCN(c2nc(C3=C(c4c[nH]c5ccccc45)C(=O)NC3=O)c3ccccc3n2)CC1 [sotrastaurin]
Outline: as §1

Tubastatin A = compound: CN1CCc2c(c3ccccc3n2Cc2ccc(C(=O)NO)cc2)C1 [Tubastatin A]
Outline: as §1

[7] = compound: CNC(=O)C1=CC=CC=C1NC2=NC(=NC=C2Cl)NC3=C(C=C(C=C3)N4CCOCC4)OC
Outline: as §1

defactinib = compound: CNC(=O)c1ccc(Nc2ncc(C(F)(F)F)c(NCc3nccnc3N(C)S(C)(=O)=O)n2)cc1 [defactinib]
Outline: as §1

rucaparib = compound: CNCc1ccc(-c2[nH]c3cc(F)cc4c3c2CCNC4=O)cc1 [rucaparib]
Outline: as §1

[8] = compound: CNc1nc(-c2ccc3c(N)n[nH]c3c2)cc(N2C[C@@H](C(=O)NC3CCCCC3)CC[C@H]2C)n1
Outline: as §1

encorafenib = compound: COC(=O)N[C@@H](C)CNc1nccc(-c2cn(C(C)C)nc2-c2cc(Cl)cc(NS(C)(=O)=O)c2F)n1 [encorafenib]
Outline: as §1

[9] = compound: COC(=O)[C@H](CCSC)NC(=O)C1=C(C=C(C=C1)NC[C@H](CS)N)C2=CC=CC=C2
Outline: as §1

[10] = compound: CCn1c(C(=O)N(C2CC2)C2CC2)cc2c3c(ncn3C)c(Nc3cc(C)n(C)n3)nc21
Outline: as §1

rosiglitazone = compound: CN(CCOC1=CC=C(C=C1)C[C@H]2C(=O)NC(=O)S2)C3=CC=CC=N3 (racemic) [rosiglitazone]
Outline: as §1

alvocidib = compound: CN1CC[C@H](c2c(O)cc(O)c3c(=O)cc(-c4ccccc4Cl)oc23)[C@H](O)C1 [alvocidib]
Outline: as §1

| Target | log2 fold change [1] | log2 fold change (volasertib) | log2 fold change [2] | log2 fold change (epoxomicin) | log2 fold change [3] | log2 fold change [4] | log2 fold change [5] | log2 fold change [6] | log2 fold change (saracatinib) | log2 fold change (sotrastaurin) | log2 fold change (Tubastatin A) | log2 fold change [7] | log2 fold change (defactinib) | log2 fold change (rucaparib) | log2 fold change [8] | log2 fold change (encorafenib) | log2 fold change [9] | log2 fold change [10] | log2 fold change (rosiglitazone) | log2 fold change (alvocidib) |
| --- | --- | --- | --- | --- | --- | --- | --- | --- | --- | --- | --- | --- | --- | --- | --- | --- | --- | --- | --- | --- |
| POLR2D (UniProt O15514) | inactive: 0.206 | inactive: 0.135 | inactive: -0.017 | inactive: 0.17 | inactive: 0.043 | inactive: -0.02 | inactive: -0.101 | inactive: 0.056 | inactive: 0.064 | inactive: 0.015 | inactive: -0.064 | inactive: -0.114 | inactive: 0.165 | inactive: 0.056 | inactive: 0.026 | inactive: 0.003 | inactive: -0.038 |  |  |  |
| PML (UniProt P29590) | inactive: -0.051 | inactive: -0.136 | inactive: 0.027 | inactive: -0.021 | inactive: -0.024 | inactive: -0.049 | inactive: 0.015 | inactive: -0.045 | inactive: -0.001 | inactive: -0.038 | inactive: -0.051 | inactive: 0.024 | inactive: -0.053 | inactive: -0.008 | inactive: -0.031 | inactive: 0.005 | inactive: 0 |  |  |  |
| POLR3B (UniProt Q9NW08) | inactive: 0.029 | inactive: -0.44 | inactive: 0.134 | inactive: 0.07 | inactive: -0.028 | inactive: 0.075 | inactive: 0.105 | inactive: -0.058 | inactive: -0.056 | inactive: -0.129 | inactive: -0.045 | inactive: -0.004 | inactive: -0.03 | inactive: -0.032 | inactive: -0.047 | inactive: 0.039 | inactive: -0.028 |  |  |  |
| POLR1A (UniProt O95602) | inactive: 0.059 | inactive: 0.071 | inactive: -0.26 | inactive: -0.037 | inactive: -0.066 | inactive: -0.086 | inactive: 0.056 | inactive: 0.054 | inactive: -0.027 | inactive: -0.151 | inactive: 0.148 | inactive: -0.138 | inactive: -0.011 | inactive: 0.064 | inactive: -0.089 | inactive: -0.015 | inactive: 0.115 |  |  |  |
| PPIL2 (UniProt Q13356) | inactive: -0.196 | active: -0.599 | inactive: 0.159 | inactive: 0.142 | inactive: -0.031 | inactive: 0.08 | inactive: -0.019 | inactive: -0.022 | inactive: -0.02 | inactive: -0.096 | inactive: 0.069 | inactive: -0.023 | inactive: -0.194 | inactive: 0.073 | inactive: 0.067 | inactive: 0.047 | inactive: -0.065 |  |  |  |
| POTEI (UniProt P0CG38) | inactive: -0.009 | inactive: -0.009 | inactive: -0.043 | inactive: -0.039 | inactive: 0.009 | inactive: -0.006 | inactive: -0.06 | inactive: 0.035 | inactive: 0.108 | inactive: 0.066 | inactive: -0.012 | inactive: -0.02 | inactive: -0.026 | inactive: -0.049 | inactive: -0.014 | inactive: -0.007 | inactive: -0.016 |  |  |  |
| POLR1D (UniProt P0DPB6) | inactive: -0.047 | inactive: -0.215 | inactive: 0.013 | inactive: 0.286 |  | inactive: 0.052 | inactive: 0.098 |  | inactive: -0.089 | inactive: -0.221 | inactive: 0.091 | inactive: 0.011 | inactive: 0.02 | inactive: 0.257 | inactive: -0.052 | inactive: -0.03 | inactive: -0.045 | inactive: -0.043 | inactive: 0.12 | inactive: 0.19 |
| POMP (UniProt Q9Y244) | inactive: 0.097 | inactive: -0.049 | inactive: 0.008 | active: 0.581 | inactive: 0.021 | inactive: -0.018 | inactive: -0.02 | inactive: -0.004 | inactive: 0.075 | inactive: 0.035 | inactive: -0.067 | inactive: -0.035 | inactive: -0.014 | inactive: -0.013 | inactive: -0.114 | inactive: -0.071 | inactive: 0.136 |  |  |  |
| POLR2L (UniProt P62875) | inactive: 0.088 | inactive: -0.134 | inactive: 0.036 | inactive: 0.247 | inactive: -0.054 | inactive: 0.195 | inactive: 0.052 | inactive: 0.16 | inactive: -0.042 | inactive: -0.057 | inactive: 0.118 | inactive: 0.039 | inactive: 0.149 | inactive: 0.113 | inactive: 0.028 | inactive: 0.062 | inactive: -0.017 | inactive: 0.05 |  | inactive: 0.026 |
| PNPLA6 (UniProt Q8IY17) | inactive: -0.086 | inactive: 0.141 | inactive: -0.001 | inactive: -0.049 |  | inactive: 0.05 | inactive: 0.121 |  | inactive: -0.029 |  | inactive: -0.006 | inactive: 0.223 | inactive: 0.047 | inactive: 0.127 | inactive: 0.021 | inactive: 0.046 | inactive: 0.01 | inactive: -0.109 | inactive: 0.171 | inactive: 0.073 |
| PPIL4 (UniProt Q8WUA2) | inactive: -0.024 | active: -0.253 | inactive: 0.043 | inactive: 0.011 | inactive: 0.047 | inactive: 0.007 | inactive: 0.022 | inactive: -0.098 | inactive: -0.012 | inactive: -0.072 | inactive: -0.005 | inactive: -0.123 | inactive: -0.108 | inactive: 0.07 | inactive: 0.024 | inactive: 0.086 | inactive: -0.031 |  |  |  |
| POLD1 (UniProt P28340) | inactive: -0.061 | active: -0.239 | inactive: 0.053 | inactive: 0.123 | inactive: -0.005 | inactive: 0.027 | inactive: -0.03 | inactive: -0.171 | inactive: 0.018 | inactive: -0.052 | inactive: 0.055 | inactive: -0.01 | inactive: -0.115 | inactive: -0.004 | inactive: -0.004 | inactive: 0.131 | inactive: -0.029 |  |  |  |
| POLR2K (UniProt P53803) | inactive: -0.259 | inactive: -0.002 | inactive: -0.05 | inactive: -0.032 | inactive: -0.049 | inactive: 0.05 | inactive: -0.02 | inactive: 0.05 | inactive: -0.024 | inactive: 0.032 | inactive: -0.031 | inactive: -0.057 | inactive: 0.034 | inactive: 0.039 | inactive: -0.047 | inactive: -0.174 | inactive: -0.063 |  |  |  |
| POLR2G (UniProt P62487) | inactive: 0.215 | inactive: 0.276 | inactive: -0.075 | inactive: 0.054 | inactive: -0.003 | inactive: 0.02 | inactive: 0.002 | inactive: 0.081 | inactive: 0.041 | inactive: -0.016 | inactive: -0.045 | inactive: 0.003 | inactive: 0.154 | inactive: 0.039 | inactive: 0.042 | inactive: -0.016 | inactive: -0.03 |  |  | active: 0.328 |
| PNPLA2 (UniProt Q96AD5) | inactive: 0.11 | inactive: 0.126 | inactive: 0.015 | inactive: -0.041 | inactive: 0.156 | inactive: -0.044 | inactive: -0.025 | inactive: -0.068 | inactive: 0.015 | inactive: -0.028 | inactive: -0.034 | inactive: -0.039 | inactive: 0 | inactive: -0.06 | inactive: 0.154 | inactive: -0.012 | inactive: -0.056 |  |  |  |
| PLXND1 (UniProt Q9Y4D7) | inactive: 0.122 |  |  |  |  | inactive: 0.005 | inactive: -0.027 |  | inactive: 0.46 |  |  |  | inactive: 0.035 | inactive: 0.109 | inactive: -0.35 | inactive: 0.256 | inactive: 0.037 |  | inactive: 0.052 |  |
| PMPCA (UniProt Q10713) | inactive: 0.018 | inactive: 0.158 | inactive: 0.021 | inactive: 0.029 | inactive: -0.095 | inactive: 0.013 | inactive: -0.124 | inactive: 0.138 | inactive: -0.026 | inactive: -0.007 | inactive: -0.007 | inactive: 0.007 | inactive: -0.086 | inactive: -0.022 | inactive: 0.052 | inactive: -0.027 | inactive: -0.022 |  |  |  |
| PNPLA8 (UniProt Q9NP80) | inactive: -0.048 | inactive: -0.184 | inactive: -0.07 | inactive: 0.112 | inactive: -0.07 | inactive: 0.029 | inactive: 0.003 | active: -0.262 | inactive: 0.022 | inactive: 0.052 | inactive: -0.009 | inactive: -0.021 | inactive: -0.051 | inactive: 0.038 | inactive: -0.016 | inactive: 0.026 | inactive: -0.01 |  |  |  |
| PNN (UniProt Q9H307) | inactive: 0.248 | inactive: -0.039 | inactive: -0.077 | inactive: -0.07 | inactive: 0.021 |  | inactive: 0.067 | inactive: -0.042 | inactive: -0.037 | inactive: -0.044 |  | inactive: -0.067 |  | inactive: 0.303 | inactive: -0.071 | inactive: -0.174 |  |  |  |  |

Individual results from above:
Entry of POLR3B (UniProt Q9NW08) under log2 fold change (sotrastaurin): inactive: -0.129
Entry of PNN (UniProt Q9H307) under log2 fold change (volasertib): inactive: -0.039
